Data as given in publication PMC4039143.
These are yes or no findings as the source states them, for the method shown. Binding seen in cells or lysates may run through a third protein. These calls come from enrichment with a bait or labelling near it, and not all partners need be listed.

Biological target: C-terminally V5-tagged AMF (human) (UniProt P06744)
Test: affinity purification with mass spectrometry; extracts of HEK293T cells overexpressing AMF-V5 loaded on anti-V5-coupled magnetic beads; immunocomplex resolved by SDS-PAGE; all bands except AMF-V5 subjected to LC-MS/MS

TRIM25 (tripartite motif-containing protein 25), found with AMF-V5 in HEK293T extract (from UniProt Q14258 1-630)
binding: binds
